Measured values taken from PMC9452783.
Results are given in words; binding and its absence hold for the method and conditions named. Binding seen in cells or lysates may run through a third protein. Some entries that bind do so weakly or less than the wild type. For part of these data: Tags and fused reporters may be left off the sequences shown. One block for each binder: values may come before it.

By UniProt entry, the sequences of proteins in these tests, tags left out. Where a name states a change or a piece, a line headed by the entry shows the natural chain unless it says otherwise. Residues count along the entry.
UniProt P53350: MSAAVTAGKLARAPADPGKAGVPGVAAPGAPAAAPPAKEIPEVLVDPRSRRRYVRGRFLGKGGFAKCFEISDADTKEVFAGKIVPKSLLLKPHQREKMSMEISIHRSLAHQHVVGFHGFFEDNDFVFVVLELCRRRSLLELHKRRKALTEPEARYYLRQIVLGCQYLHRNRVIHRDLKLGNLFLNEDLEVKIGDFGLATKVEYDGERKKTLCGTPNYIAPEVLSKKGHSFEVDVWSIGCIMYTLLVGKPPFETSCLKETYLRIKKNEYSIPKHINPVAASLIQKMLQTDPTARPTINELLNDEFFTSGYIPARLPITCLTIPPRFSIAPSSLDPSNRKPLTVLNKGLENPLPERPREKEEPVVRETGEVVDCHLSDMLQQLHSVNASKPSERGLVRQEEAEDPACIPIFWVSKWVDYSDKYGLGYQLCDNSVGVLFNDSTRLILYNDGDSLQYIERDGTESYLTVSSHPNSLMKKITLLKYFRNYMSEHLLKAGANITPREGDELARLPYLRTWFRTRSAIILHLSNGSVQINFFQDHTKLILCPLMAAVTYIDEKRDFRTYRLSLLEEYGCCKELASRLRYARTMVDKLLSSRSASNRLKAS
Flag-PLK1 330-603 (polo-box domain): residues 330-603 of P53350

How the values were obtained:
[1] = biological target: T1, GST-ZNF830 (expressed in 293T cells) (UniProt Q96NB3); assay: co-IP; GST-ZNF830 and Flag-PPIL2 constructs expressed in 293T cells; IP and western blot, IP antibody not stated
T1 sequence: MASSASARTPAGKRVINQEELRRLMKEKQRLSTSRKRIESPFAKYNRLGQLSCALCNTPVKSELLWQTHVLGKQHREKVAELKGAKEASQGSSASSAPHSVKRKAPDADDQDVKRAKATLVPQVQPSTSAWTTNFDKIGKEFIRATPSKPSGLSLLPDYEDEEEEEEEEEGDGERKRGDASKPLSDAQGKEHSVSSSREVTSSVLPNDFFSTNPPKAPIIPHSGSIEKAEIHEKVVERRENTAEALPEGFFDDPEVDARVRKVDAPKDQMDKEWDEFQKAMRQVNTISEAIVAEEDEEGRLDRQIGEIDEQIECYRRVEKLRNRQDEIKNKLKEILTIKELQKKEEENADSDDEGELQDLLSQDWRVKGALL

[2] = biological target: Flag-CtIP (human) (UniProt Q99708); assay: co-IP; 293T cells cotransfected with Flag- and His-tagged constructs; IP with anti-Flag ("indicated antibodies" for Figures 5A, 7C, 7D), western blot with anti-His and anti-Flag; some panels with or without 2 μM CPT for 1 h, or with MG132 (20 μM, 3 h) and NETN lysis
[3] = biological target: T2, Flag-CtIP 200-460 (human) (UniProt Q99708); assay: as above
T2 sequence: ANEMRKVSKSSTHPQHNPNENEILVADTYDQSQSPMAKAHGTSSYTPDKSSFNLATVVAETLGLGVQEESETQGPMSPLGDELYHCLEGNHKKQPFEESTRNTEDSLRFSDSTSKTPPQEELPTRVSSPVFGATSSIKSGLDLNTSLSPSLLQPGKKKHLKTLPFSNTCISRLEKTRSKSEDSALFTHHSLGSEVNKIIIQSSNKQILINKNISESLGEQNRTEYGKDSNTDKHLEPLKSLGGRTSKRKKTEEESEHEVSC

[4] = biological target: T3, Flag-CtIP 460-897 (human) (UniProt Q99708); assay: as above
T3 sequence: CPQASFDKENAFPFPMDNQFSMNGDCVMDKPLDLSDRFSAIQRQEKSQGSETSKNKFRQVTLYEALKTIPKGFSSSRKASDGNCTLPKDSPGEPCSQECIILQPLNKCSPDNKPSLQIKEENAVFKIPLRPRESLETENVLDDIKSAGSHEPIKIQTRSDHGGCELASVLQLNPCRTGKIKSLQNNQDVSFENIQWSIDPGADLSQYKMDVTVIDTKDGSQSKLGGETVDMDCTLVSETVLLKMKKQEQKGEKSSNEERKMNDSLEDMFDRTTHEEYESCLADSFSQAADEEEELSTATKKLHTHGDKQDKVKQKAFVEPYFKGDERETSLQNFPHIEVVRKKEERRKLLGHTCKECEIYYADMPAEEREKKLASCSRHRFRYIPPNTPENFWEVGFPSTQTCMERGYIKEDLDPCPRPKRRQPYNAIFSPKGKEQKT

[5] = biological target: T4, ZNF830 (endogenous, U2OS) (human (endogenous in U2OS)) (UniProt Q96NB3); assay: co-IP; endogenous proteins, U2OS lysate; IP with anti-ZNF830 antibody, western blot with anti-PPIL2 or anti-ZNF830
T4 sequence: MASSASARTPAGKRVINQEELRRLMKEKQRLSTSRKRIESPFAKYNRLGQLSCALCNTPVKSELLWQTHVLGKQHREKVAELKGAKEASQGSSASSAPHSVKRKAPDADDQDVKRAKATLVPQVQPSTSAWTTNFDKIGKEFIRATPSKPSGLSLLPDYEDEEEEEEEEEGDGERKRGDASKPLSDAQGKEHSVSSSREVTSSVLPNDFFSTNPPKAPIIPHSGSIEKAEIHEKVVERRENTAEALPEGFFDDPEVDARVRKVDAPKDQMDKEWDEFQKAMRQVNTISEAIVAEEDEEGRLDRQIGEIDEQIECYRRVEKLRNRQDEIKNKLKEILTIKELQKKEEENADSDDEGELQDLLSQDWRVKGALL

[6] = biological target: CtIP (endogenous, U2OS) (human (endogenous in U2OS)) (UniProt Q99708); assay: co-IP; endogenous proteins, U2OS lysate; IP with anti-CtIP antibody, western blot with anti-CtIP and anti-PPIL2; also after 2 μM CPT for 1 h
[7] = biological target: Flag-PLK1 (UniProt P53350); assay: co-IP; 293T cells cotransfected with Flag- and His-tagged constructs; IP with anti-Flag ("indicated antibodies" for Figures 5A, 7C, 7D), western blot with anti-His and anti-Flag; some panels with or without 2 μM CPT for 1 h, or with MG132 (20 μM, 3 h) and NETN lysis
[8] = biological target: Flag-PLK1 330-603 (polo-box domain) (UniProt P53350); assay: as above

binding [5]: binds
binding [6]: binds
B3: PPIL2 (endogenous, U2OS) (protein, UniProt Q13356 1-520)
chain: MGKRQHQKDKMYITCAEYTHFYGGKKPDLPQTNFRRLPFDHCSLSLQPFVYPVCTPDGIVFDLLNIVPWLKKYGTNPSNGEKLDGRSLIKLNFSKNSEGKYHCPVLFTVFTNNTHIVAVRTTGNVYAYEAVEQLNIKAKNFRDLLTDEPFSRQDIITLQDPTNLDKFNVSNFYHVKNNMKIIDPDEEKAKQDPSYYLKNTNAETRETLQELYKEFKGDEILAATMKAPEKKKVDKLNAAHYSTGKVSASFTSTAMVPETTHEAAAIDEDVLRYQFVKKKGYVRLHTNKGDLNLELHCDLTPKTCENFIRLCKKHYYDGTIFHRSIRNFVIQGGDPTGTGTGGESYWGKPFKDEFRPNLSHTGRGILSMANSGPNSNRSQFFITFRSCAYLDKKHTIFGRVVGGFDVLTAMENVESDPKTDRPKEEIRIDATTVFVDPYEEADAQIAQERKTQLKVAPETKVKSSQPQAGSQGPQTFRQGVGKYINPAATKRAAEEEPSTSATVPMSKKKPSRGFGDFSSW

binding [2]: binds
binding [7]: binds
binding [8]: binds
B4: His-PPIL2 (full length, expressed in 293T cells) (protein, UniProt Q13356 1-520)
chain: MGKRQHQKDKMYITCAEYTHFYGGKKPDLPQTNFRRLPFDHCSLSLQPFVYPVCTPDGIVFDLLNIVPWLKKYGTNPSNGEKLDGRSLIKLNFSKNSEGKYHCPVLFTVFTNNTHIVAVRTTGNVYAYEAVEQLNIKAKNFRDLLTDEPFSRQDIITLQDPTNLDKFNVSNFYHVKNNMKIIDPDEEKAKQDPSYYLKNTNAETRETLQELYKEFKGDEILAATMKAPEKKKVDKLNAAHYSTGKVSASFTSTAMVPETTHEAAAIDEDVLRYQFVKKKGYVRLHTNKGDLNLELHCDLTPKTCENFIRLCKKHYYDGTIFHRSIRNFVIQGGDPTGTGTGGESYWGKPFKDEFRPNLSHTGRGILSMANSGPNSNRSQFFITFRSCAYLDKKHTIFGRVVGGFDVLTAMENVESDPKTDRPKEEIRIDATTVFVDPYEEADAQIAQERKTQLKVAPETKVKSSQPQAGSQGPQTFRQGVGKYINPAATKRAAEEEPSTSATVPMSKKKPSRGFGDFSSW

The remaining lines, values behind:

B1: Flag-PPIL2 241-520 (domain or fragment, UniProt Q13356 241-520)
chain: YSTGKVSASFTSTAMVPETTHEAAAIDEDVLRYQFVKKKGYVRLHTNKGDLNLELHCDLTPKTCENFIRLCKKHYYDGTIFHRSIRNFVIQGGDPTGTGTGGESYWGKPFKDEFRPNLSHTGRGILSMANSGPNSNRSQFFITFRSCAYLDKKHTIFGRVVGGFDVLTAMENVESDPKTDRPKEEIRIDATTVFVDPYEEADAQIAQERKTQLKVAPETKVKSSQPQAGSQGPQTFRQGVGKYINPAATKRAAEEEPSTSATVPMSKKKPSRGFGDFSSW
binding [1]: binds

B2: His-PPIL2 241-520 (expressed in 293T cells) (domain or fragment, UniProt Q13356 241-520)
chain: YSTGKVSASFTSTAMVPETTHEAAAIDEDVLRYQFVKKKGYVRLHTNKGDLNLELHCDLTPKTCENFIRLCKKHYYDGTIFHRSIRNFVIQGGDPTGTGTGGESYWGKPFKDEFRPNLSHTGRGILSMANSGPNSNRSQFFITFRSCAYLDKKHTIFGRVVGGFDVLTAMENVESDPKTDRPKEEIRIDATTVFVDPYEEADAQIAQERKTQLKVAPETKVKSSQPQAGSQGPQTFRQGVGKYINPAATKRAAEEEPSTSATVPMSKKKPSRGFGDFSSW
binding [2]: binds
binding [3]: binds
binding [4]: binds
